Assay results taken from publication PMC5608764.
The exact form of at least one protein or probe is not confirmed. At least one verdict was read from the data and is not stated in words by the source.

Sequences of proteins named here, by UniProt entry; tags and fusion partners are left off. Residues count along the entry.
UniProt P09651, 1-97: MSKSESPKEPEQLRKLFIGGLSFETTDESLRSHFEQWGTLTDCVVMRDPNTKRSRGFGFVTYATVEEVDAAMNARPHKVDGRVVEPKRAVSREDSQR

Target: hnRNP A1 RRM1 (UniProt P09651)
Assay: NMR (3J couplings of complex)
Conditions: 20 mM K phosphate pH 5.8, 10 mM NaCl, 0.1% beta-mercaptoethanol, 25 C (NMR titrations and ITC); hnRNP A1: 10 mM Na phosphate pH 6.5, 10 mM beta-mercaptoethanol; recombinant protein; protein details: His-tag (pET28a, Ni affinity)

UUAGGCU
binding result: binds
